Weaker means in comparison with the reference protein, sequence or condition of that experiment.
Target: Natural human growth hormone (hGH, somatotropin) (Homo sapiens) (UniProt P01241)
Test: ELONA
Settings: weaker than r-hGH; purified native protein; label: 5'-biotin; single-stranded DNA

Amino acid sequences for entries named in this document (tags omitted). Residues count along the entry.
UniProt P01241, 27-217: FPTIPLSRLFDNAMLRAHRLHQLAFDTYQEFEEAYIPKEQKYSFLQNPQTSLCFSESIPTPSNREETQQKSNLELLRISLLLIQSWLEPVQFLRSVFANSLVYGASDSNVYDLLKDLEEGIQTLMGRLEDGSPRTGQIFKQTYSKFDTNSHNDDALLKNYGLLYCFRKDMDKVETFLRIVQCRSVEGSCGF

Binding result, binds more weakly:
ATACGGGAGCCAACACCACATGACGGGTGACTAAAAGACGAAATCTCCCAATTAAGAGCAGGTGTGACGGAT [hGH aptamer SEQ 377]
ATACGGGAGCCAACACCACCTGAGCGCCGGCAGCACTCACTATTTGTCCCCGCAAGAGCAGGTGTGACGGAT [hGH aptamer SEQ 379]
ATACGGGAGCCAACACCAGGTTGGCGTCAAAAGAAATAAGGGATATACATTAGAGAGCAGGTGTGACGGAT [hGH aptamer SEQ 345]
ATACGGGAGCCAACACCATAAGCAGAGAACTACAAGACGATCCCATATTCCAAAGAGCAGGTGTGACGGAT [hGH aptamer SEQ 343]
ATCCGTCACACCTGCTCTAAAACATGGGCCCAATTAGGCGTGATCCAACCCGTCTGGTGTTGGCTCCCGTAT [hGH aptamer SEQ 388]
ATCCGTCACACCTGCTCTAGGATTTTTGTTATGTCGGCCACGATGGGGACCCCGTGGTGTTGGCTCCCGTAT [hGH aptamer SEQ 348]
ATCCGTCACACCTGCTCTGGGGTGTATCCTTTTATGGATCTGCGAGAATAAGTCTGGTGTTGGCTCCCGTAT [hGH aptamer SEQ 336]
ATCCGTCACACCTGCTCTTGGGTGAATCAATTGTTCGTACTCCACGTGATTCTGTGGTGTTGGCTCCCGTAT [hGH aptamer SEQ 338]

— patent US20140296500
